# PubChem BioAssay AID686943 | Drosophila RNAi Screening Center | 2013
# Purpose: 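Fly genes whose loss alters ERK activation after insulin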 (primary screen)
# Cell system: Drosophila S2R+ haemocyte-like cells expressing YFP-tagged ERK (Rolled)
# Knock-down reagent: long dsRNA against Drosophila genes
# Challenge: insulin stimulation versus unstimulated cells; dose and duration not given
# Measurement: 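Per-plate z-scores of phospho-ERK immunostaining normalised to YFP-tagged ERK, measured with and without insulin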
# Reading the numbers: replicate 1, z-score of dpERK with insulin and replicate 2, z-score of dpERK with insulin: higher = more active ERK per ERK-YFP after insulin; replicate 1, z-score of dpERK under basal conditions: higher = more basal active ERK per ERK-YFP; replicate 1, z-score of ERK-YFP with insulin: higher = more YFP-tagged ERK signal
# The screen tested about 23,000 reagents; shown is a random part of those that have a named target and a result. 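Extra replicates exist only for a retested subset of genes; insulin dose and duration not given; both raised and lowered dpERK matter.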 Reagents against one gene are numbered here. Names joined by + are all predicted targets of the reagent. Not given: the amount of reagent, the time to read-out.
gene,reagent,"replicate 1, z-score of dpERK with insulin","replicate 2, z-score of dpERK with insulin","replicate 1, z-score of dpERK under basal conditions","replicate 1, z-score of ERK-YFP with insulin"
kri,1,0.19,-0.33,1.27,-0.3
CG43317,1,0.19,0.32,1.45,0.34
APC10,1,-0.14,0.23,0.44,0.14
dgo,1,0.41,-0.33,-0.13,-0.17
Ilp8,1,-1.92,-0.05,-0.02,0.2
CG12689,1,-0.47,-0.04,-0.53,0.42
CG15717,1,-0.42,-0.16,-0.3,0.53
THADA,1,0.35,0.01,0.08,0.08
Apoltp,1,1.55,0.6,0.72,0.56
CR42548,1,0.48,0.36,-0.52,-0.33
Cpr64Ad,1,0.06,0.01,-0.76,-0.1
CG31055,1,0.09,0.39,0.14,0.16
CG43894,1,0.63,0.61,0.79,-0.51
CG43894,2,-5,-3.07,-0.03,-0.8
CG42324,1,-1.71,0.57,0.36,0.31
CG42324,2,0.11,0.66,-0.45,-0.47
CG11275,1,0.81,-0.4,0.08,0.23
Prestin,1,0.7,-0.14,-0.29,0.77
CG17109,1,0.8,-0.22,0.7,0.06
CSN3,1,-1.07,0.19,0.56,-0.31
CG7142,1,-0.06,0.84,0.3,0.28
BEAF-32 + CG42254 (retired record),1,-0.77,-0.53,-0.71,0.05
CG16964,1,-0.44,-0.4,-0.24,0.09
CG13855,1,-0.3,-0.39,-0.07,0.36
TM9SF2,1,0.62,1.83,3.57,-0.87
dom,1,-3.07,-3.73,-2.86,3.71
dom,2,-0.51,-0.16,-1.12,1.37
blp,1,0.97,0.47,1.08,-0.61
tor,1,0.27,-0.2,0.17,-0.3
CG32487,1,0,0.01,0.77,0.26
SrpRbeta,1,0.01,1.17,0.78,-1.95
Hsp60C,1,-0.66,0.31,0.19,0.77
AcCoAS,1,0.05,1.02,0.65,0.27
AcCoAS,2,-1.11,-0.2,-0.15,0.21
AcCoAS,3,0.68,0.27,-0.52,-0.43
CG14427,1,1.2,0.46,-1.35,-0.22
Ptp69D,1,-0.32,-0.14,1.51,0.24
CG7627,1,0.2,0.14,-0.59,0.81
Vm32E,1,-0.28,0.04,0.85,-0.7
Arc1,1,-3.86,-4.23,-1.44,-0.58
HemK1,1,-1.95,-1.05,-0.34,0.85
CG1647,1,0.01,0.18,0.2,1.14
Gale,1,-0.07,-0.06,-0.71,0.27
CG14455,1,-0.61,-0.46,-0.14,-0.11
Vps51,1,0.4,0.09,-0.55,-0.19
pira,1,-0.36,-0.79,1.69,0.69
BaraC,1,-2.01,-1.04,-1.26,0.84
GlyT,1,0.5,1.57,0.68,-0.17
CG7786,1,0.67,-0.6,-0.56,0.22
Teh2,1,-0.25,-0.43,1,0.27
Hesr,1,0.06,-0.49,0.16,0.4
ppk19,1,0.49,0.09,0.91,0.69
Nup75,1,-0.17,-0.11,-1.77,-5.66
CG4393,1,-0.27,-0.1,0,0.42
CG2931,1,0.55,-0.12,1.32,-0.24
Chchd2,1,-0.47,0.6,0.65,1.12
bc10,1,0.78,0.34,1.32,0.31

In a second layout: results already given.
gene | reagent | replicate 1, z-score of dpERK with insulin | replicate 2, z-score of dpERK with insulin | replicate 1, z-score of dpERK under basal conditions | replicate 1, z-score of ERK-YFP with insulin
CG43894 | 1 | 0.63 | 0.61 | 0.79 | -0.51
CG43894 | 2 | -5 | -3.07 | -0.03 | -0.8
CG42324 | 1 | -1.71 | 0.57 | 0.36 | 0.31
CG42324 | 2 | 0.11 | 0.66 | -0.45 | -0.47
CG11275 | 1 | 0.81 | -0.4 | 0.08 | 0.23
